Measurements published in doi:10.1101/2021.01.15.426901.
These are yes or no findings as the source states them, for the method shown. Binding seen in cells or lysates may run through a third protein. Binding can be weak; no strength is given.

Amino acid sequences for entries named in this document (tags omitted). A change or cut given only in a name is not applied to a line headed by its entry.
UniProt Q562E2: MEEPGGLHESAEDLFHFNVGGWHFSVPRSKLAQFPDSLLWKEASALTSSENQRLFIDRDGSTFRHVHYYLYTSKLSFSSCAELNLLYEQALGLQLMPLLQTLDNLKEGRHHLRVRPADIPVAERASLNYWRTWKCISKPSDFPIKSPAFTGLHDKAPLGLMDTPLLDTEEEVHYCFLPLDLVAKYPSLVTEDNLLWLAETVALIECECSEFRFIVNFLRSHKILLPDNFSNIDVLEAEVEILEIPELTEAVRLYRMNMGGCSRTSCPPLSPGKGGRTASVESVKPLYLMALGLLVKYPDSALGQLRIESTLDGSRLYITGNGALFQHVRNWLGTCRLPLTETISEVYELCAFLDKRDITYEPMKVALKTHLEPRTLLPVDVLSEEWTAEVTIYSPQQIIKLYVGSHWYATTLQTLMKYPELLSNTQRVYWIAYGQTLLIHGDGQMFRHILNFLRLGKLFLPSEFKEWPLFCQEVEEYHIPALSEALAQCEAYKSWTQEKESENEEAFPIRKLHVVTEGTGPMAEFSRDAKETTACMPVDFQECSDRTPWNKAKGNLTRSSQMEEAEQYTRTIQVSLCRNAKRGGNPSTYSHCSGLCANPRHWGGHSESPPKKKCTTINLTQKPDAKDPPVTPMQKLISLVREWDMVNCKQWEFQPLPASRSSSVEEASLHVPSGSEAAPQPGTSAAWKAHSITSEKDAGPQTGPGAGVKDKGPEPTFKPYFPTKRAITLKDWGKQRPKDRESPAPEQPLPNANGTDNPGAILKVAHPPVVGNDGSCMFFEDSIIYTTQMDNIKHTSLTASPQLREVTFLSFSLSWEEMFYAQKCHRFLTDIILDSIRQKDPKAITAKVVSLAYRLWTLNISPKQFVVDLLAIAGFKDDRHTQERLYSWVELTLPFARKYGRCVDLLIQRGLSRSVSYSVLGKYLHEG
UniProt P70288: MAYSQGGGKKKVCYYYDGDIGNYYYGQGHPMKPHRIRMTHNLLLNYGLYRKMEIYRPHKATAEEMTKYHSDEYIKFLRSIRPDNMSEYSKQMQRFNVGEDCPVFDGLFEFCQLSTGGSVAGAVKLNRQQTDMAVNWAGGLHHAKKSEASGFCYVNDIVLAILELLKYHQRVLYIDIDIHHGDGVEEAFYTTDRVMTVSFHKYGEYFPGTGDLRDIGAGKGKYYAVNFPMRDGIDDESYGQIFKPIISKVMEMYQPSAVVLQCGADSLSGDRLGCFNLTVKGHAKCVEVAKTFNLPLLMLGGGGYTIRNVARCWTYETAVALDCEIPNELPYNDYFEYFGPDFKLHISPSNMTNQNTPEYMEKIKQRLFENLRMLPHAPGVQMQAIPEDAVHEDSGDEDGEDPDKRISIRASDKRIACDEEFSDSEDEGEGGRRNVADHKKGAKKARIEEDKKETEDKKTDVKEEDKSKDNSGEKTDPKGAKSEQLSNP
UniProt O09106: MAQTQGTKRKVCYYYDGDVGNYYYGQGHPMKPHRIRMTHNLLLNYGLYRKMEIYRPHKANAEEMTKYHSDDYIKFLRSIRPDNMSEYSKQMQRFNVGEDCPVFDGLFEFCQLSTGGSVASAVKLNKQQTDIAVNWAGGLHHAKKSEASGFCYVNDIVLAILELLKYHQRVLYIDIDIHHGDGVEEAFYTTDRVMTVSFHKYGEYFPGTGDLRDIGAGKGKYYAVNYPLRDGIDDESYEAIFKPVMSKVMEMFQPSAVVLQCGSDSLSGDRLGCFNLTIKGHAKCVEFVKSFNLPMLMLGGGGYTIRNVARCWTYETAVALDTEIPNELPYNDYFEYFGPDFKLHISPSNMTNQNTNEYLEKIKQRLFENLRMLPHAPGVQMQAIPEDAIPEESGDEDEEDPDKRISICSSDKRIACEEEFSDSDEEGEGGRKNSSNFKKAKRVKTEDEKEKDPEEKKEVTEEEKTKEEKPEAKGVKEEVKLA

Tests used:
[1] = molecular target: KCTD19 (mouse (endogenous in testis)) (UniProt Q562E2); test: co-IP
[2] = molecular target: T1, ZFP541 (mouse (endogenous in testis)) (UniProt Q0GGX2); test: co-IP
T1 sequence: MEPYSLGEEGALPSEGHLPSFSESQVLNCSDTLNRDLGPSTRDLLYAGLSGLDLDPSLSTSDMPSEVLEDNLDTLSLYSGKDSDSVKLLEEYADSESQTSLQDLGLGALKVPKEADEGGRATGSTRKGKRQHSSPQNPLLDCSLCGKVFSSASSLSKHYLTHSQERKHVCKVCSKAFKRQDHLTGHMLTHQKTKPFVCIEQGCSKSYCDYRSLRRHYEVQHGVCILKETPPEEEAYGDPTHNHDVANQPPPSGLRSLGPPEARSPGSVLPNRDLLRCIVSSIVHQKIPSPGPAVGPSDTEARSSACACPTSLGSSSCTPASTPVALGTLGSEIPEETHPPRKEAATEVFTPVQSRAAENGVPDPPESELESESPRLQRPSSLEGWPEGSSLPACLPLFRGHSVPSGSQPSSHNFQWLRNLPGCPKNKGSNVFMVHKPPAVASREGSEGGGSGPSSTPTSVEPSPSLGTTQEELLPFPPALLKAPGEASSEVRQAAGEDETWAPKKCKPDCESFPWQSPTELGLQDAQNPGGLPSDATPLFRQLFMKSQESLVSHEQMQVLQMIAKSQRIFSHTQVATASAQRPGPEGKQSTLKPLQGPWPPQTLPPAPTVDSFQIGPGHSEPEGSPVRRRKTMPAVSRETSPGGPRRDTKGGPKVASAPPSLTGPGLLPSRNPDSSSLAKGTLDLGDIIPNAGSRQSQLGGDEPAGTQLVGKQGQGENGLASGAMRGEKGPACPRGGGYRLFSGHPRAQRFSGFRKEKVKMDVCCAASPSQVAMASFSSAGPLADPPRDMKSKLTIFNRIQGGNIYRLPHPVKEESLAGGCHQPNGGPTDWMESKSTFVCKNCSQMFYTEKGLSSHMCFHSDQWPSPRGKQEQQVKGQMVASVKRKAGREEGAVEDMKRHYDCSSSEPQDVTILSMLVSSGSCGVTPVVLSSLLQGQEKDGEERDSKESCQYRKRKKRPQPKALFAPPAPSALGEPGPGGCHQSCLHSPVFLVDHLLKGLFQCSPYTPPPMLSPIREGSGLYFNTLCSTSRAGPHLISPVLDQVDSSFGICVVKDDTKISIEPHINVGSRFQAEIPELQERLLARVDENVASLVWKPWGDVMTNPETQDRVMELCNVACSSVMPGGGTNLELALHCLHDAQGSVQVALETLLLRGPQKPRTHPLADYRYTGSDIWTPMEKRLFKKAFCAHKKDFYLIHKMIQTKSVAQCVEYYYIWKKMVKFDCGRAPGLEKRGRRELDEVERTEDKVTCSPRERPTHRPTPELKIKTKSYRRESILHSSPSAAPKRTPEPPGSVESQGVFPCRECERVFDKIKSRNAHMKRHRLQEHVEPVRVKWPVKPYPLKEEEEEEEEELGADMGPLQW

| Molecule | binding [1] | binding [2] |
| --- | --- | --- |
| HDAC2 (from UniProt P70288 1-488) (enzyme) | binds | – |
| HDAC1 (from UniProt O09106 1-482) (enzyme) | binds | – |
| KCTD19 (from UniProt Q562E2-2) | – | binds |
| ZFP541 (protein, UniProt Q0GGX2 1-1363) MEPYSLGEEGALPSEGHLPSFSESQVLNCSDTLNRDLGPSTRDLLYAGLSGLDLDPSLSTSDMPSEVLEDNLDTLSLYSGKDSDSVKLLEEYADSESQTSLQDLGLGALKVPKEADEGGRATGSTRKGKRQHSSPQNPLLDCSLCGKVFSSASSLSKHYLTHSQERKHVCKVCSKAFKRQDHLTGHMLTHQKTKPFVCIEQGCSKSYCDYRSLRRHYEVQHGVCILKETPPEEEAYGDPTHNHDVANQPPPSGLRSLGPPEARSPGSVLPNRDLLRCIVSSIVHQKIPSPGPAVGPSDTEARSSACACPTSLGSSSCTPASTPVALGTLGSEIPEETHPPRKEAATEVFTPVQSRAAENGVPDPPESELESESPRLQRPSSLEGWPEGSSLPACLPLFRGHSVPSGSQPSSHNFQWLRNLPGCPKNKGSNVFMVHKPPAVASREGSEGGGSGPSSTPTSVEPSPSLGTTQEELLPFPPALLKAPGEASSEVRQAAGEDETWAPKKCKPDCESFPWQSPTELGLQDAQNPGGLPSDATPLFRQLFMKSQESLVSHEQMQVLQMIAKSQRIFSHTQVATASAQRPGPEGKQSTLKPLQGPWPPQTLPPAPTVDSFQIGPGHSEPEGSPVRRRKTMPAVSRETSPGGPRRDTKGGPKVASAPPSLTGPGLLPSRNPDSSSLAKGTLDLGDIIPNAGSRQSQLGGDEPAGTQLVGKQGQGENGLASGAMRGEKGPACPRGGGYRLFSGHPRAQRFSGFRKEKVKMDVCCAASPSQVAMASFSSAGPLADPPRDMKSKLTIFNRIQGGNIYRLPHPVKEESLAGGCHQPNGGPTDWMESKSTFVCKNCSQMFYTEKGLSSHMCFHSDQWPSPRGKQEQQVKGQMVASVKRKAGREEGAVEDMKRHYDCSSSEPQDVTILSMLVSSGSCGVTPVVLSSLLQGQEKDGEERDSKESCQYRKRKKRPQPKALFAPPAPSALGEPGPGGCHQSCLHSPVFLVDHLLKGLFQCSPYTPPPMLSPIREGSGLYFNTLCSTSRAGPHLISPVLDQVDSSFGICVVKDDTKISIEPHINVGSRFQAEIPELQERLLARVDENVASLVWKPWGDVMTNPETQDRVMELCNVACSSVMPGGGTNLELALHCLHDAQGSVQVALETLLLRGPQKPRTHPLADYRYTGSDIWTPMEKRLFKKAFCAHKKDFYLIHKMIQTKSVAQCVEYYYIWKKMVKFDCGRAPGLEKRGRRELDEVERTEDKVTCSPRERPTHRPTPELKIKTKSYRRESILHSSPSAAPKRTPEPPGSVESQGVFPCRECERVFDKIKSRNAHMKRHRLQEHVEPVRVKWPVKPYPLKEEEEEEEEELGADMGPLQW | binds | – |
| terminal deoxynucleotidyltransferase interacting factor 1 (TDIF1) (protein, UniProt Q99LB0 1-328) MGATGDTEQPRGPGGAERGGLELGDAGAAGQPVLTNPWNIMIKHRQVQRRGRRSQMTTSFTDPAISMDLLRAVLQPSINEEIQGVFNKYMKFFQKAALNVRDNVGEEVDAEQLIQEACRSCLEQAKLLFSDGEKVIPRLAHELPGIKRGRQAEEESHRGSPIPKKRKGRPPGHVLSNDRAAAGMVWKQKSCEPIRREGPKWDPARLNESTTFVLGSRANKALGMGGTRGRIYIKHPHLFKYAADPQDKHWLAEQHHMRATGGKMAYLLIEEDIRDLAASDDYRGCLDLKLEELKSFVLPSWMVEKMRKYMETLRTENEHRAAEAPPQT | binds | – |
